Measurements: patent publication US8106190B2, “2-aminobenzamide derivatives” (Astellas Pharma Inc., priority 2005, dated 2012)
Structures can show the parent of a compound that is named as a salt. Some results were stated once for a whole list of compounds, not compound by compound.

Protein sequences, listed by entry. Tags and fused reporters are not part of them.
UniProt Q8NER1, whole entry: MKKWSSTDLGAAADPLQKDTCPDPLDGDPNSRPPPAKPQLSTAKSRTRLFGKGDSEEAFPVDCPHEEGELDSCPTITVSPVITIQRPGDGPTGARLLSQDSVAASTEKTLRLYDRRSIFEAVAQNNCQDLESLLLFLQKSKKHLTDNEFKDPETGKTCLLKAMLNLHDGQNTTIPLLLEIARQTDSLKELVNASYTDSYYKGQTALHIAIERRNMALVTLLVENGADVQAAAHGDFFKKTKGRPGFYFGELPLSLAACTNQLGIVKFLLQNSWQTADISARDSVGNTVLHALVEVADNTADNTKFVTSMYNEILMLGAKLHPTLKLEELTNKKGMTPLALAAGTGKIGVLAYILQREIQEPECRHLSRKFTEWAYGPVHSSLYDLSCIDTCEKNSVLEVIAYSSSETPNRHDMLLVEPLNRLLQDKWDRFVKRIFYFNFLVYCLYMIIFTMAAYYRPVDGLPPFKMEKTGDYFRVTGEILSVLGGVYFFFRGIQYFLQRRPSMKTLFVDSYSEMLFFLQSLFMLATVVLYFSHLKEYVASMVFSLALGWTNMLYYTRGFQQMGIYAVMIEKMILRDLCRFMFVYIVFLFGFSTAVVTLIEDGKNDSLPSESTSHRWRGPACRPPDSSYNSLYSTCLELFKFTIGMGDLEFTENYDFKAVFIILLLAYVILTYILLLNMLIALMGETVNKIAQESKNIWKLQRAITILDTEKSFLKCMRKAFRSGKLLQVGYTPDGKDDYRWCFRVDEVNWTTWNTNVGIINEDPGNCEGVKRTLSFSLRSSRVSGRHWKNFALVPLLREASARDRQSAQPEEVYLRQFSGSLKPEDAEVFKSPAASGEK

Target: T1, human VR1 (Homo sapiens, UniProt Q8NER1)
T1 construct: A complete length cDNA coding for human VR1 was obtained; expressed in transfected cells
Experiment: Receptor binding assay ([3H]RTX) using membrane of human VR1 stably expressing HEK 293 cell
Details: [3H]RTX binding, VR1/HEK 293 membrane sample, 37° C. 60 minutes; read-out: VR1 receptor binding inhibitory activity, IC50 value
Protocol: 1. Receptor Binding Assay Using VR1 Stably Expressing Cell
1) Construction of Human VR1 Stably Expressing Cell
A complete length cDNA coding for human VR1 was obtained by the following method. Firstly, a first strand cDNA was synthesized by carrying out reverse transcription of human brain mRNA using a reverse transcriptase. Next, PCR by Hot Start method was carried out using this first strand cDNA as the template and using Taq DNA polymerase. In the aforementioned PCR, an oligonucleotide consisting of the 424th to 443rd nucleotide sequence of a conventionally known human VR1 cDNA sequence (Genbank AJ277028.1) was used as the sense primer, and an oligonucleotide consisting of a complementary chain sequence of the 3082nd to 3100th nucleotide sequence as the antisense primer, and thermal denaturation was firstly carried out at 98° C. (1 minute) and then a cycle consisting of 98° C. (15 seconds)/63° C. (30 seconds)/72° C. (3 minutes) was repeated 35 times.
Cloning of the thus amplified DNA fragment was carried out using pCR-XL-TOPO vector (TOPO XL PCR Cloning Kit; Invitrogen, USA). The human VR1-cDNA alone was isolated by digesting the resulting plasmid DNA with a restriction enzyme EcoRI and then integrated into pcDNA3.1 (+) plasmid (Invitrogen, USA). In this case, the above genetic engineering operations were carried out by conventionally known methods (Sambrook, J. et al., “Molecular Cloning—A Laboratory Manual”, Cold Spring Harbor Laboratory Press, NY, 2001) and in accordance with the instructions attached to respective reagents.
Next, the resulting pcDNA3.1-VR1 was transferred into HEK 293 cell. By selecting VR1/HEK 293 cells using DMEM medium (Invitrogen, USA) containing 10% FBS, 100 μg/ml streptomycin, 100 U/ml penicillin and 400 μg/ml G 418, a receptor stably expressing cell strain was prepared. The receptor stably expressing cell was sub-cultured in the medium described in the above.
2) Preparation of Membrane Sample
The VR1/HEK 293 cell described in the above was mass-produced in a dish and then, after discarding the medium, scraped out after adding ice-cooled PBS. Centrifugation was carried out at 1000 rpm and at 4° C. for 10 minutes, and the resulting residue was homogenized by adding a homogenization buffer (25 mM Tris-HCl, 220 mM sucrose, pH 7.4) and centrifuged at 2,200 rpm and at 4° C. for 10 minutes. The resulting supernatant was centrifuged at 30,000×g and at 4° C. for 20 minutes and the resulting residue was mixed with 25 mM Tris-HCl, pH 7.4, and centrifuged at 30,000×g and at 4° C. for 20 minutes, and this operation was repeated twice. The resulting residue was suspended in 25 mM Tris-HCl, pH 7.4, and the protein concentration was determined using a protein assay staining solution (Bio-Rad, USA). The thus prepared membrane sample was stored at −80° C.
3) Receptor Binding Assay
This was carried out by modifying the method of [Neurosci., 57: 747-757 (1993)]. As the assay buffer, 25 mM Tris-HCl, 0.025% BSA, pH 7.4 was used. Each test compound, [^3H]RTX 50 μl (about 50,000 dpm; Perkin Elmer Life Science, USA) and the aforementioned membrane sample (protein quantity about 25 μg) were suspended in a microplate to a total volume of 300 μl, incubated at 37° C. for 60 minutes and then incubated on ice for 10 minutes. A 200 μg/50 μl portion of an ice-cooled α1 acid glycoprotein (AGP; Sigma) was added thereto and further incubated for 5 minutes. Completion of the incubation was carried out by rapid filtration of the reaction liquid using a GF/B filter (Perkin Elmer Life Science, USA). After 7 times of washing with ice-cooled 25 mM Tris-HCl buffer (pH 7.4), radioactivity of the filter was measured by a liquid scintillation counter. Regarding the specific binding, a part substituted by 1 μM of RTX among the total binding of [^3H]RTX with the VR1 receptor stably expressing cell membrane fraction was regarded as the specific binding originated from the VR1 receptor. Evaluation of test compounds was carried out in the following manner. […]

IC50, ≤ 5 µM:
CC1Oc2ccc(NC(=O)c3ccc(Cl)cc3NC3CCCCC3)cc2N(C)C1=O (centres unmarked) [Example 88]
COCC(C)Nc1cc(Cl)ccc1C(=O)Nc1ccc2c(c1)NC(=O)C(C)O2 (centres unmarked) [Example 78]
CN1C(=O)CCc2ccc(NC(=O)c3ccc(Cl)cc3NC3CCCCC3N3CCCC3)cc21 (centres unmarked) [Example 29]
COCCCNc1cc(Cl)ccc1C(=O)Nc1ccc2c(c1)N(C)C(=O)CC2 [Example 28]
CN1C(=O)CCc2ccc(NC(=O)c3cc(Cl)ccc3NC3CCCCC3)cc21 [Example 41]
CC(CN(C)C)Nc1cc(Cl)ccc1C(=O)Nc1cc2c(c(C(F)(F)F)c1)CC(=O)N2 (centres unmarked) [Example 75]
CN1C(=O)CCc2ccc(NC(=O)c3ccc(Cl)cc3N[C@@H]3CCCC[C@H]3N3CCCC3)cc21 [Example 53]
CN1C(=O)CCc2ccc(NC(=O)c3ccc(Cl)cc3N[C@H]3CCCC[C@@H]3N3CCCC3)cc21 (relative stereo) [Example 2, 4-chloro-N-(1-methyl-2-oxo-1,2,3,4-tetrahydroquinolin-7-yl)-2-{[(1S*,2S*)-2-pyrrolidin-1-ylcyclohexyl]amino}benzamide hydrochloride]
O=C(Nc1ccc2scnc2c1)c1ccc(Cl)cc1NC1CCCCC1 [Example 81]
CN1C(=O)CCc2ccc(NC(=O)c3ccc(Cl)cc3NCC3CCCCN3C)cc21 (centres unmarked) [Example 5, 4-chloro-N-(1-methyl-2-oxo-1,2,3,4-tetrahydroquinolin-7-yl)-2-{[(1-methylpiperidin-2-yl)methyl]amino}benzamide hydrochloride]
CN1C(=O)CCc2ccc(NC(=O)c3ccccc3Nc3ccccc3)cc21 [Example 36]
CCN1C(C)(C)CC(Nc2cc(Cl)ccc2C(=O)Nc2ccc3c(c2)N(C)C(=O)CC3)CC1(C)C [Example 37]
CN1C(=O)CCc2ccc(NC(=O)c3ccc(C(F)(F)F)nc3NC3CCCCC3)cc21 [Example 91]
CC(CN1CCOCC1)Nc1cc(Cl)ccc1C(=O)Nc1ccc2c(c1)N(C)C(=O)CC2 (centres unmarked) [Example 61]
CN1C(=O)CCc2ccc(NC(=O)c3ccc(Cl)cc3NC3CCCC3N3CCCCC3)cc21 (centres unmarked) [Example 48]
CN1C(=O)CSc2ccc(NC(=O)c3ccc(Cl)cc3NC3CCCCC3)cc21 [Example 89]
CN1C(=O)CCc2ccc(NC(=O)c3cc(C(F)(F)F)ccc3NC3CCCCC3)cc21 [Example 9]
CN1C(=O)CCc2ccc(NC(=O)c3ccc(Cl)cc3N[C@H]3CCCC[C@@H]3N3CCCC3)cc21 [Example 54]
CC(C)Nc1ncccc1C(=O)Nc1ccc2c(c1)N(C)C(=O)CC2 [Example 82]
CN1C(=O)CCc2ccc(NC(=O)c3cccnc3NC3CCCCC3)cc21 [Example 83]
